“And” between values parts separate entries of the source, which are not always exact repeats. Equal entries are not always repeated. The inconclusive results got no clear call from the source; some entries with a clear call stand among them for comparison. A potency beside an inconclusive call is a rough fit, not a confirmed value. The source made the active and inactive calls. Calls follow the shape of the dose curve; as a rule, active = well fitted inhibition curve with a large enough effect; inconclusive = small, poorly fitted or top-dose-only effect, or effect the other way; inactive = flat fitted curve, though single readings scatter.
Each compound was assayed against Thyroid hormone receptor beta (Homo sapiens) (UniProt P10828) (assay: Concentration Response Confirmation Assay for Inhibitors of the Interaction of Thyroid Hormone Receptor and Steroid Receptor Coregulator 2, Fluorescein Fluoroprobe). Details: TRbeta LBD / fluorescein-SRC2 peptide, fluorescence polarization, 5 h; series mostly up to 92.2 µM; activity, negative = inhibition: at the top concentration.
Description: NIH Molecular Libraries Probe Production Network [MLPCN] NIH Chemical Genomics Center [NCGC] MLPCN Grant: DK058080 Assay Provider: R. Kip Guy, St. Jude Children's Research Hospital NCGC Assay Overview: Thyroid receptor (TR) regulates many homeostatic processes including basal metabolism, cardiovascular function, body weight, and lipid trafficking. TR modulators are potential therapeutics for obesity and hyperlipidemias but current thyroid analogs have undesirable side effects, particularly cardiac stimulation. To identify inhibitors that specifically prevent the interaction of TR with the steroid receptor coregulator 2 (SRC2), a fluorescence polarization assay was screened (Arnold et al., 2006). This assay detects interaction of the ligand-binding domain of human TRbeta with a fluorescein labeled SRC2 peptide, corresponding to a 20 amino acid region of the nuclear receptor interaction domain. Small molecule inhibitors that block the interaction of TR and SRC2 are detected by a decrease in fluorescence polarization. This assay is a confirmation assay for AID 1469. Arnold, L. A.; Estebanez-Perpina, E.; Togashi, M.; Shelat, A.; Ocasio, C. A.; McReynolds, A. C.; Nguyen, P.; Baxter, J. D.; Fletterick, R. J.; Webb, P.; Guy, R. K. A high-throughput screening method to identify small molecule inhibitors of thyroid hormone receptor coactivator binding. Sci STKE 2006, p 13.
NCGC Assay Protocol Summary: Five uL/well 0.6 uM TRbeta and 20 nM SRC2 Fluorescein in protein buffer (20mM Tris hydrochloride, 100mM NaCl, 10% glycerol, 1mM EDTA, 0.01% NP-40, 1mM DTT, 1uM T3 and 5% DMSO) was dispensed into black solid 1536-well plates (Grenier) using a solenoid-based dispenser. Following transfer of 23 nL compound or DMSO vehicle by a pin tool, the plates were centrifuged 15 s at 1000 RPM and incubated 5 hr at ambient temperature. The plates were read by an Envision (Perkin Elmer) to detect fluorescence polarization of SRC2 Fluorescein (480 nm excitation and 535 nm emission). Data were normalized to unbound (all components except TRbeta) and bound SRC2 Fluorescein controls. In this assay, we provide % activity data for each concentration as well as potencies for the active compounds. Keywords: NIH Roadmap, MLPCN, MLI, MLSMR, qHTS, NCGC, qHTS, thyroid hormone receptor, steroid receptor coactivator, fluorescence polarization

Sequences of proteins named here, by UniProt entry; tags and fusion partners are left off. A change or cut given only in a name is not applied to a line headed by its entry.
UniProt P10828: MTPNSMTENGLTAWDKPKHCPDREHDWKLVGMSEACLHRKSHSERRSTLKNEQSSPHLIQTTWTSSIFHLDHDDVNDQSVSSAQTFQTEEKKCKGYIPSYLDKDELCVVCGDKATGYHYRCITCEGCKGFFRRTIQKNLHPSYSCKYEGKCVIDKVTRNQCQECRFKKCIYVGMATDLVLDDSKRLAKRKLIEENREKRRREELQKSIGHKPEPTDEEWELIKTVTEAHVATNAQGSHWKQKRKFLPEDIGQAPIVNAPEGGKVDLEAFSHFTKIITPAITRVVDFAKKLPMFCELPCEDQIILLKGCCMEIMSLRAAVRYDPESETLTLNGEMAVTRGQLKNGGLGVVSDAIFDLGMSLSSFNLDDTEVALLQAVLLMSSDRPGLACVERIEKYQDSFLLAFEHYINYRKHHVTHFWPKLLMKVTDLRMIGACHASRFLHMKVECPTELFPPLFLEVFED

SMILES	Potency	activity, negative = inhibition
Cc1[nH]n(-c2ccccc2)c(=O)c1C(c1ccc([N+](=O)[O-])cc1)c1c(C)[nH]n(-c2ccccc2)c1=O	inconclusive: 12.6 µM [inhibitor, full curve, poor fit]	
CCn1nc(-c2cccs2)nc2c(=O)n(C)c(=O)nc1-2		inactive: -6.77%
COP(=S)(OC)Oc1ccc([N+](=O)[O-])cc1	active: 14.1 µM	
CN1CC[C@@]2(C)c3cc(O)ccc3N(C)C2O1 (some centres not stated)	inconclusive: 22.4 µM [inhibitor, full curve]	
CCCCCn1c(N)c(C(=O)NCc2cccs2)c2nc3ccccc3nc21	inconclusive: 10 µM [inhibitor, partial curve, poor fit]	
CC(=O)NC1N=C(C)N(c2ccccc2)C1=O (configuration not stated)	inconclusive: 15.8 µM [inhibitor, full curve, poor fit]	
O=C(O)CC1OCC=C2CN3CCC45C6=CC(=O)C(=O)C([N+](=O)[O-])=C6NC4C1C2CC35 (configuration not stated)	inconclusive: 3.98 µM [inhibitor, full curve] and inconclusive: 1 µM [inhibitor, full curve]	

Source: PubChem BioAssay AID1570 (National Center for Advancing Translational Sciences (NCATS), 2009)
